PubChem BioAssay AID652259 | Drosophila RNAi Screening Center – 2013
In all, the deposit lists about 22,000 reagents; below is an unselected part of those with a known target gene and a result. Of all reagents, 233 (1.1%) are marked active. 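Light values are raw, unnormalised plate reads; the ratio scores behind the reporter calls were not deposited.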 A number with no mark means an inactive call. The numbers tell different reagents against one gene apart. A plus sign joins genes that one reagent is predicted to hit. No sequences are given here. Not stated in the record: the amount of reagent, the time to read-out, the dose of the treatment.

Assay: 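Knock-downs that push a Wingless-driven reporter up or down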 (primary screen)
Cell system: Drosophila clone 8 imaginal disc epithelial cells
Reagent: long dsRNA against Drosophila genes
Treatment: pathway stimulated by co-transfected Wingless expression plasmid
Read-out: 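Dual luciferase reads per well after Wingless plasmid stimulation: reporter firefly light and Renilla control light; activity is firefly divided by Renilla, a ratio not deposited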
Direction: firefly reporter light: higher = more Wg reporter light, before normalisation; Renilla control light: higher = more transfected or surviving cells
Hit rule: 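Strong candidates differ from their plate mean by at least two out of four per-plate statistical tests; weak candidates meet just one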
Calls: active = candidate regulator (raises or lowers reporter); inactive = not a candidate

| gene | dsRNA no. | reporter change call, replicate 1 | firefly reporter light, replicate 1 | firefly reporter light, replicate 2 | Renilla control light, replicate 1 | Renilla control light, replicate 2 |
| --- | --- | --- | --- | --- | --- | --- |
| Grl62c | 1 | – | 2331 | – | 1316 | – |
| CR32511 | 1 | – | 4065 | – | 1638 | – |
| asRNA:CR43470 + CG14830 | 1 | – | 1284 | 6295 | 939 | 2904 |
| CG10019 | 1 | – | 2320 | 3795 | 625 | 1424 |
| btl | 1 | – | 5929 | – | 2486 | – |
| mip40 | 1 | – | 11785 | – | 5362 | – |
| CG17982 | 1 | – | 15121 | – | 7216 | – |
| Ror | 1 | – | 2995 | 8067 | 1067 | 4321 |
| NetA | 1 | – | 17618 | – | 8118 | – |
| CG12725 | 1 | – | 20788 | – | 12308 | – |
| CG31323 | 1 | – | 23958 | – | 18109 | – |
| papi | 1 | – | 9288 | – | 2714 | – |
| CG7408 | 1 | – | 7861 | – | 3427 | – |
| CG30323 | 1 | – | 4689 | – | 1572 | – |
| CG5181 | 1 | – | 13970 | – | 5020 | – |
| OS9 + Hf | 1 | – | 6352 | – | 2128 | – |
| Polr3K + Tcs1 | 1 | – | 8917 | – | 5270 | – |
| ddbt | 1 | – | 3845 | – | 1717 | – |
| CG10588 | 1 | – | 13830 | – | 4976 | – |
| Kif19A | 1 | – | 3181 | – | 1077 | – |
| CG14195 | 1 | – | 19078 | – | 10439 | – |
| RpL6 | 1 | – | 29456 | – | 19826 | – |
| RpL6 | 2 | – | 7.13e5 | 6.67e5 | 1.28e5 | 85916 |
| CG31230 | 1 | – | 8.64e5 | 8.44e5 | 3.66e5 | 3.77e5 |
| CG15263 | 1 | – | 4930 | 8444 | 1442 | 4007 |
| CG10459 | 1 | – | 3781 | 11978 | 1581 | 5031 |
| CG10459 | 2 | – | 6.02e5 | 6.50e5 | 2.67e5 | 2.96e5 |
| CG16824 | 1 | – | 4272 | 9392 | 1082 | 3412 |
| CG32773 (retired record) | 1 | – | 4554 | – | 1392 | – |
| Kyat | 1 | – | 12156 | – | 2836 | – |
| Jon65Aiii | 1 | – | 4343 | – | 2384 | – |
| CG9143 | 1 | – | 9861 | – | 3179 | – |
| CG13994 | 1 | – | 3127 | 6101 | 784 | 2343 |
| Adk3 | 1 | – | 19096 | – | 5451 | – |
| Nlp | 1 | Wg reporter activity lowered (active) | 2294 | 2625 | 1468 | 2279 |
| CG13250 | 1 | – | 15237 | – | 5296 | – |
| Xrcc2 | 1 | – | 16372 | – | 6333 | – |
| gogo | 1 | – | 18759 | – | 4645 | – |
| gogo | 2 | – | 17264 | – | 5577 | – |
| CG7084 | 1 | – | 3817 | 8008 | 1691 | 2682 |
| Obp50b + Obp50c | 1 | – | 8.35e5 | 7.29e5 | 3.70e5 | 3.30e5 |
| Traf6 | 1 | – | 20853 | – | 11674 | – |
| CG18269 | 1 | – | 3174 | 5303 | 810 | 1913 |
| CG13364 | 1 | – | 24155 | – | 17072 | – |
| CG13364 | 2 | – | 16917 | – | 8960 | – |
| GstD11 | 1 | – | 8915 | – | 1920 | – |
| CG17475 | 1 | – | 11810 | – | 2611 | – |
| CG15249 | 1 | – | 21595 | – | 11203 | – |
| Nox | 1 | – | 6245 | – | 2225 | – |
| Nox | 2 | – | 6171 | – | 2409 | – |

Part of the list above in another layout:
{"gene":"Grl62c","dsRNA no.":1,"firefly reporter light, replicate 1":2331,"Renilla control light, replicate 1":1316}
{"gene":"CR32511","dsRNA no.":1,"firefly reporter light, replicate 1":4065,"Renilla control light, replicate 1":1638}
{"gene":"asRNA:CR43470 + CG14830","dsRNA no.":1,"firefly reporter light, replicate 1":1284,"firefly reporter light, replicate 2":6295,"Renilla control light, replicate 1":939,"Renilla control light, replicate 2":2904}
{"gene":"CG10019","dsRNA no.":1,"firefly reporter light, replicate 1":2320,"firefly reporter light, replicate 2":3795,"Renilla control light, replicate 1":625,"Renilla control light, replicate 2":1424}
{"gene":"btl","dsRNA no.":1,"firefly reporter light, replicate 1":5929,"Renilla control light, replicate 1":2486}
{"gene":"mip40","dsRNA no.":1,"firefly reporter light, replicate 1":11785,"Renilla control light, replicate 1":5362}
{"gene":"CG17982","dsRNA no.":1,"firefly reporter light, replicate 1":15121,"Renilla control light, replicate 1":7216}
{"gene":"Ror","dsRNA no.":1,"firefly reporter light, replicate 1":2995,"firefly reporter light, replicate 2":8067,"Renilla control light, replicate 1":1067,"Renilla control light, replicate 2":4321}
